The results in this text go back to the supplement of paper PMC12823440, “Inhibitors supercharge kinase turnover through native proteolytic circuits” (Nature, 2025).

The chains behind the UniProt entries cited, without tags or fusion partners. Where a name states a change or a piece, a line headed by the entry shows the natural chain unless it says otherwise.
UniProt Q15208: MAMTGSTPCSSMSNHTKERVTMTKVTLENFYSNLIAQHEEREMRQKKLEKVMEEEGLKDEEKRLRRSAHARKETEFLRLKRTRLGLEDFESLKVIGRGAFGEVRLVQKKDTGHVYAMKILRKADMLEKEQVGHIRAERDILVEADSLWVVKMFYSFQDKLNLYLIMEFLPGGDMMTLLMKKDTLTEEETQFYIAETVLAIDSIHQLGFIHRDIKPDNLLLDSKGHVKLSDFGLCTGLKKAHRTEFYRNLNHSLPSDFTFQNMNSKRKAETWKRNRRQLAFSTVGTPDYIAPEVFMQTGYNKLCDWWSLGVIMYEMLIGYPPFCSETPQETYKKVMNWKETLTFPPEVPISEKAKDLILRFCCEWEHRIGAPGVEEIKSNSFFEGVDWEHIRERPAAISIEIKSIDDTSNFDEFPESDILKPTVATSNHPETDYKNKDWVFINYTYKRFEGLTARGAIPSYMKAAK
UniProt P42680: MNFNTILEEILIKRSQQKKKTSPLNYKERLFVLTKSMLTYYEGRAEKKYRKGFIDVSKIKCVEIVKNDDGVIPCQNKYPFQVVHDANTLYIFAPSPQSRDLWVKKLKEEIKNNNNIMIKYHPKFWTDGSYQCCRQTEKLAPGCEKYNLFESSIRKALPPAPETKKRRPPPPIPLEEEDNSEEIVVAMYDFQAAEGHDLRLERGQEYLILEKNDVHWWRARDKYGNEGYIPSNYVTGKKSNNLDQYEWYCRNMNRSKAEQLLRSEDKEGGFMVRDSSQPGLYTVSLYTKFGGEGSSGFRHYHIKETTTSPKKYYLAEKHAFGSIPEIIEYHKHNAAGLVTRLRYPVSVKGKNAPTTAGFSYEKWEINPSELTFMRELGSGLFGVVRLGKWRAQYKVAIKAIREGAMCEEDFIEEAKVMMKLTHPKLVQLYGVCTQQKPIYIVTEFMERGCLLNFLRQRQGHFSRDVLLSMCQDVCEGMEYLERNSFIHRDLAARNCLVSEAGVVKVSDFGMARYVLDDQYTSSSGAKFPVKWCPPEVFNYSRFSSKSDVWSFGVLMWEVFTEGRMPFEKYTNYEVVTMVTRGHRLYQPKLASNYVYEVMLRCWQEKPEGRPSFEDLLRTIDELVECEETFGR
UniProt P29597: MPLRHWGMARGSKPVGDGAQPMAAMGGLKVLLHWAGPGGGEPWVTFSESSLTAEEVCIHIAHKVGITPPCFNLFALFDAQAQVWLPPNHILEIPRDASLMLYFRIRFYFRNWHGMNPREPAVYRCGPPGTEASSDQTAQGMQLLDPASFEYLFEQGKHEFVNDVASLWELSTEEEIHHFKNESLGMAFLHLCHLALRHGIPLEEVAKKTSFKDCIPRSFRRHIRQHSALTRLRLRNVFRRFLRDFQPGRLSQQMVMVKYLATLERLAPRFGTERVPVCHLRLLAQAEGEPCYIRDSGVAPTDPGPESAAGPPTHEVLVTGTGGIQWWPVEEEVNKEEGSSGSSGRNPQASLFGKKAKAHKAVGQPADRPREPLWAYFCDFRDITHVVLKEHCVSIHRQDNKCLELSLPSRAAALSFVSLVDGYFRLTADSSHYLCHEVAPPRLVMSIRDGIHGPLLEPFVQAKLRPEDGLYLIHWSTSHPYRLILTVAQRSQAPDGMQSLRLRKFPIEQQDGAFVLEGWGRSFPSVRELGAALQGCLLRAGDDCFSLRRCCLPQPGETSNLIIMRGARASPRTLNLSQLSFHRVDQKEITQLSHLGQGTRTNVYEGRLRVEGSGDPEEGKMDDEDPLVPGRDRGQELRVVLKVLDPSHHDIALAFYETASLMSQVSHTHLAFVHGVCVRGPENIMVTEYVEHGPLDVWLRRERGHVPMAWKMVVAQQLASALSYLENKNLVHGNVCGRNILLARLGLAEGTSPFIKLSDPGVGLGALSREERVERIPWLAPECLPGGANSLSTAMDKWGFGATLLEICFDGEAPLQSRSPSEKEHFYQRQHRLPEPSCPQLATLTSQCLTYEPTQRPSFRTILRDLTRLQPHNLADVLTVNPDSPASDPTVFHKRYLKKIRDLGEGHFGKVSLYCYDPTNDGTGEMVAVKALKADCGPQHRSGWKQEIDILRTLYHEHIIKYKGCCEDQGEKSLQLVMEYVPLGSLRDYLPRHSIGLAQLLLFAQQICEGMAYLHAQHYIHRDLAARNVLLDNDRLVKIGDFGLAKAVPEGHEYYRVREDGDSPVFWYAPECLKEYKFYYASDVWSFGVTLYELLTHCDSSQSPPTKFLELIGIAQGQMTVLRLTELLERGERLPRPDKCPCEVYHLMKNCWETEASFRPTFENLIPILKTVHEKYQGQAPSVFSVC
UniProt Q6PHR2: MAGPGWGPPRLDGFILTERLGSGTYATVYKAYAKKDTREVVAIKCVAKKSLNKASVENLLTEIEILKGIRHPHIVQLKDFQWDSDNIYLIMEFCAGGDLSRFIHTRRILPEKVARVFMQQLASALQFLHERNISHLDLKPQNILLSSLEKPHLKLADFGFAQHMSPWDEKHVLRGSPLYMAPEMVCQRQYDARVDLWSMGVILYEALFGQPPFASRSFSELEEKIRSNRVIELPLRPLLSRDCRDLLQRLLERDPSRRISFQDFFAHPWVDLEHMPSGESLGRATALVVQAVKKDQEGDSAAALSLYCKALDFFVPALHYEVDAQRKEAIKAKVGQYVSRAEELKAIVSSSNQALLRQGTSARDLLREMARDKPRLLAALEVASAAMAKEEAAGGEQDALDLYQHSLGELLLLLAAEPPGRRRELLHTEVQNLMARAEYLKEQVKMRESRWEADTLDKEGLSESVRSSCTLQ
UniProt P07947, whole entry, looked up: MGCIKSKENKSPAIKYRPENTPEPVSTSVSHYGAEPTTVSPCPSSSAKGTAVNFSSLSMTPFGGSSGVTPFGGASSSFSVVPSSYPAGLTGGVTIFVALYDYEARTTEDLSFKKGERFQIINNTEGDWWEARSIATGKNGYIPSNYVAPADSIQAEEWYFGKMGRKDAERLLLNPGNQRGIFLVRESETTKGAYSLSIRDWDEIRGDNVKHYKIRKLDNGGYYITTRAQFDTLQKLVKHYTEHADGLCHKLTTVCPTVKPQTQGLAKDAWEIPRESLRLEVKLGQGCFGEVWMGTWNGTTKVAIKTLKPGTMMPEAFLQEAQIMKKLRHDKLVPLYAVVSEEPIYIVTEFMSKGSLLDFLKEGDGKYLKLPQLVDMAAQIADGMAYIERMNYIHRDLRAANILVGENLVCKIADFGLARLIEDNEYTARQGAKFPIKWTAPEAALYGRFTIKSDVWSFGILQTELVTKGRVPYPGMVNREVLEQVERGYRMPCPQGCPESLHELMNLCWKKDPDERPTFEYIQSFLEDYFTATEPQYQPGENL
UniProt P43403: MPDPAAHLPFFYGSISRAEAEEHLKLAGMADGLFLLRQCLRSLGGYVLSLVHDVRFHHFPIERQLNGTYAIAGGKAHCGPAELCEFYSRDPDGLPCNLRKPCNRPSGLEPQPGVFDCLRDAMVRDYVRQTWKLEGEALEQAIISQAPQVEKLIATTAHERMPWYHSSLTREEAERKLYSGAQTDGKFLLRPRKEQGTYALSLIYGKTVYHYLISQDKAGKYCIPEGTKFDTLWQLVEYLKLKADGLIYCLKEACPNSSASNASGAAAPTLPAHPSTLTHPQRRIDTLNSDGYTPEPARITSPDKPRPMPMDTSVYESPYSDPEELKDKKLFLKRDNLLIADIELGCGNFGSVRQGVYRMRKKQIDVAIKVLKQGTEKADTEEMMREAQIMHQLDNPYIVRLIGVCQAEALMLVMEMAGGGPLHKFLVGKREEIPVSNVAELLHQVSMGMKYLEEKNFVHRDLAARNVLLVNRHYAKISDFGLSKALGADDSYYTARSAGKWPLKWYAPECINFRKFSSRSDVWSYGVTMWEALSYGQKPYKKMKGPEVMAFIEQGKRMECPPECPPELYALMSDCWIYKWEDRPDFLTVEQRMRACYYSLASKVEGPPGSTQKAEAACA
UniProt P00519, whole entry: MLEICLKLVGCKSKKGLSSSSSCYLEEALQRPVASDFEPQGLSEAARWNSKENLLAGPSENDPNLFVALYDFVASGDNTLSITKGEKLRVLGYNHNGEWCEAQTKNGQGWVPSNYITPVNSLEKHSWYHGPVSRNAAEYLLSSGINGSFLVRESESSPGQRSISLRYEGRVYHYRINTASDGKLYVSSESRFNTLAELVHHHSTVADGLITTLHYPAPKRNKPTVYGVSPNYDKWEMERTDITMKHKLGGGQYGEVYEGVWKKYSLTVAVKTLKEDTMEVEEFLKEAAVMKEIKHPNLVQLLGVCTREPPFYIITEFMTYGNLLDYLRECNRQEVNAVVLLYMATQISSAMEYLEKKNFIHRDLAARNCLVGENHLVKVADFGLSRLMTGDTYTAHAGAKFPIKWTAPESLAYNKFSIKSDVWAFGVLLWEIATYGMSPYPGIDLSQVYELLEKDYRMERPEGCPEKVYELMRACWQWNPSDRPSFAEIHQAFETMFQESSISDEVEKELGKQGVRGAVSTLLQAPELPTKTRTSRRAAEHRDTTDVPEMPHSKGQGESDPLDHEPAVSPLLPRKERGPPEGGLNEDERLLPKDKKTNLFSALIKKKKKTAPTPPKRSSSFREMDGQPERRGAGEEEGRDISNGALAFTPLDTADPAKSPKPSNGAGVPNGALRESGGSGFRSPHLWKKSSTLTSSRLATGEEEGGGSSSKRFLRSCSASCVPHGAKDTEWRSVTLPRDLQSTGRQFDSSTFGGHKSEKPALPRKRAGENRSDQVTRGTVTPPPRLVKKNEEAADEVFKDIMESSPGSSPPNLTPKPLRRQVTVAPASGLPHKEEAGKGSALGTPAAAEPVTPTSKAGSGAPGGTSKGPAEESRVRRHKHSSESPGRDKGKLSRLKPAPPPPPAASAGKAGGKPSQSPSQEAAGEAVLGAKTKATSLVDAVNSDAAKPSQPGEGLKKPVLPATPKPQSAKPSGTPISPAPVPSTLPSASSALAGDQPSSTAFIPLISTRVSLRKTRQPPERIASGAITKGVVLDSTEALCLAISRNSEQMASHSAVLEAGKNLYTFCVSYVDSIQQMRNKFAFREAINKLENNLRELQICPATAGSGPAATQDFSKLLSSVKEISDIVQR
UniProt P31749: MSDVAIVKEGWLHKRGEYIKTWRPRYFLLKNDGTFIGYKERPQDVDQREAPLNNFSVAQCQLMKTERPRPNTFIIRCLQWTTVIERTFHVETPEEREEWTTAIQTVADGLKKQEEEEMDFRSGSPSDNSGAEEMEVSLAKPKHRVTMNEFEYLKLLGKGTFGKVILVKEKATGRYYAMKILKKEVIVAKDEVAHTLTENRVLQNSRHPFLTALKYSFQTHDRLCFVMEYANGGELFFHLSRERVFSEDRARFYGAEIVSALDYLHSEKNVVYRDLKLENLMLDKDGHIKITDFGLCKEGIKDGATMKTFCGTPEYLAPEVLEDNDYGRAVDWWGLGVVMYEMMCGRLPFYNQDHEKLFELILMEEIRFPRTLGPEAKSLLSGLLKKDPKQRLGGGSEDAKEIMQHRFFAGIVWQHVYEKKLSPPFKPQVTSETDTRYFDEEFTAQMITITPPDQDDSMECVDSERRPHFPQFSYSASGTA

Holding throughout (conditions): K562; 2-18 h
In one test the target is STK38 (UniProt Q15208). The test is described as follows: kinase-Nluc reporter destabilization hit call (1 = scored as downregulated) (binary); higher = compound decreases kinase abundance.
A further test concerns the target SYK (UniProt P43405). The test is described as above.
The next test deals with TEC (UniProt P42680). The description is as above.
In a further test the target is TYK2 (UniProt P29597). The description is as above.
The target of another test is ULK3 (UniProt Q6PHR2). The description is as above.
Another test deals with YES1 (UniProt P07947). Described as above.
A further test concerns the target ZAK (UniProt Q9NYL2). Described as above.
In the next test the target is ZAP70 (UniProt P43403). The test is described as above.
Another test deals with ABL1 (UniProt P00519). The test is described as follows: number of time points (of 5) at which kinase-Nluc abundance scored as decreased, DMSO-normalised (count); higher = more persistent destabilization.
The target in another test is AKT1 (UniProt P31749). Described as above.

Each structure is given as a SMILES string. This is one part of the list. The calls rarely recur for the same compound in another form.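 Kinases were expressed as nanoluciferase fusions in K562 cells and luminescence was read every 4 h between 2 and 18 h as percent of control, DMSO set to 100% and a positive control to 0%. A time point counts as decreased when the signal drops significantly (2 sigma). The hit call is the authors' own, does not follow from the count of time points alone, and its rule is not shown.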

In the case of `COc1ccc2c(=O)c(-c3ccccc3)coc2c1` [7-Methoxyisoflavone] (10 µM), the “kinase-Nluc reporter destabilization hit call” value with STK38, with SYK, in the test with TEC, with TYK2, with ULK3 and with YES1 was inactive: 0 each time. For the same compound, the “kinase-Nluc reporter destabilization hit call” value with ZAK and in the test with ZAP70 was inactive: 0 each time. Further, the “number of time points” value was 3 with ABL1 and 0 in the test with AKT1.
On to `O=C1NC(=O)C(=Cc2ccc3c(c2)OCO3)S1` (10 µM), for which the “kinase-Nluc reporter destabilization hit call” value with STK38, with SYK, in the test with TEC, with TYK2, with ULK3 and in the test with YES1 was inactive: 0 each time. In addition, the “kinase-Nluc reporter destabilization hit call” value in the test with ZAK and with ZAP70 was inactive: 0 throughout. Further, the “number of time points” value with ABL1 and with AKT1 was 0 throughout.
As to `COc1c(C)c(C(=O)c2ccc(N)c(C(=O)O)c2)n2ccccc12` (10 µM), the “kinase-Nluc reporter destabilization hit call” value with STK38, in the test with SYK, with TEC, in the test with TYK2, with ULK3 and in the test with YES1 was inactive: 0 each time. In addition, the “kinase-Nluc reporter destabilization hit call” value with ZAK and with ZAP70 was inactive: 0 each time. The “number of time points” value with ABL1 and with AKT1 was 0 each time.
For `NC(=O)c1ccc(-c2cnn3ccc(NCc4cccnc4)nc23)cc1` (2.5 µM), the “kinase-Nluc reporter destabilization hit call” value in the test with STK38, in the test with SYK, with TEC, with TYK2, in the test with ULK3 and with YES1 was inactive: 0 throughout. The “kinase-Nluc reporter destabilization hit call” value in the test with ZAK and with ZAP70 was inactive: 0 throughout. Also, the “number of time points” value with ABL1 and with AKT1 was 0 throughout.
For the compound `c1ccc(-c2nn3c(c2-c2ccnc4cc(OCCN5CCOCC5)ccc24)CCC3)nc1` (10 µM), the “kinase-Nluc reporter destabilization hit call” value with STK38, with SYK, with TEC, with TYK2, in the test with ULK3 and in the test with YES1 was inactive: 0 in each case. Moreover, the “kinase-Nluc reporter destabilization hit call” value in the test with ZAK and in the test with ZAP70 was inactive: 0 each time. Besides, the “number of time points” value with ABL1 and with AKT1 was 0 in each case.
Consider `CC(C)N(C)c1nc2cc(C(=O)O)ccc2nc1-c1ccc(F)cc1` (10 µM), for which the “kinase-Nluc reporter destabilization hit call” value with STK38, with SYK, with TEC, in the test with TYK2, with ULK3 and in the test with YES1 was inactive: 0 in each case. Also, the “kinase-Nluc reporter destabilization hit call” value with ZAK and with ZAP70 was inactive: 0 in each case. In addition, the “number of time points” value in the test with ABL1 and in the test with AKT1 was 0 throughout.
As to `O=S(=O)(c1cccc2cnccc12)N1CCNCC1` (10 µM), the “kinase-Nluc reporter destabilization hit call” value in the test with STK38, with SYK, with TEC, with TYK2, with ULK3 and in the test with YES1 was inactive: 0 in each case. In addition, the “kinase-Nluc reporter destabilization hit call” value with ZAK and in the test with ZAP70 was inactive: 0 in each case. Also, the “number of time points” value with ABL1 and with AKT1 was 0 throughout.
On to `CC(CCc1ccccn1)(CCc1ccccn1)C(=O)c1ccccc1` (10 µM), for which the “kinase-Nluc reporter destabilization hit call” value in the test with STK38, with SYK, with TEC, in the test with TYK2, in the test with ULK3 and in the test with YES1 was inactive: 0 in each case. Further, the “kinase-Nluc reporter destabilization hit call” value in the test with ZAK and in the test with ZAP70 was inactive: 0 throughout. Moreover, the results for the “number of time points” value with ABL1 and with AKT1 were 2 and 0, respectively.
Take `O=C(O)CCc1ccc(NCc2cccc(Oc3ccccc3)c2)cc1` (10 µM): the “kinase-Nluc reporter destabilization hit call” value in the test with STK38, in the test with SYK, in the test with TEC, with TYK2, with ULK3 and with YES1 was inactive: 0 in each case. For the same compound, the “kinase-Nluc reporter destabilization hit call” value in the test with ZAK and with ZAP70 was inactive: 0 throughout. The “number of time points” value with ABL1 and in the test with AKT1 was 0 each time.
Regarding `CN(C)Cc1cccc(N=C(c2ccccc2)c2c(O)[nH]c3cc(C(=O)N(C)C)ccc23)c1` (10 µM), the “kinase-Nluc reporter destabilization hit call” value with STK38, in the test with SYK, with TEC, with TYK2, with ULK3 and in the test with YES1 was inactive: 0 throughout. The “kinase-Nluc reporter destabilization hit call” value in the test with ZAK and with ZAP70 was inactive: 0 each time. Moreover, the “number of time points” value with ABL1 and in the test with AKT1 was 0 in each case.
Turning to `CC[C@@H]1C(=O)N(C)c2cnc(Nc3ccc(C(=O)N[C@H]4CC[C@H](N5CCN(CC6CC6)CC5)CC4)cc3OC)nc2N1C(C)C` [Volasertib] (2.5 µM), the “kinase-Nluc reporter destabilization hit call” value with STK38, with SYK, in the test with TEC, with TYK2, in the test with ULK3 and with YES1 was inactive: 0 in each case. Besides, the “kinase-Nluc reporter destabilization hit call” value with ZAK and in the test with ZAP70 was inactive: 0 each time. Also, the “number of time points” value with ABL1 and with AKT1 was 0 in each case.
Consider `CC1(COc2ccc3c(c2)ncn3-c2ccc3cccc(N4CCC(N)CC4)c3n2)COC1` [Crenolanib] (2.5 µM), for which the “kinase-Nluc reporter destabilization hit call” value in the test with STK38, with SYK, in the test with TEC, with TYK2, in the test with ULK3 and with YES1 was inactive: 0 each time. Further, the “kinase-Nluc reporter destabilization hit call” value with ZAK and with ZAP70 was inactive: 0 throughout. Besides, the “number of time points” value with ABL1 and with AKT1 was 0 in each case.
Regarding `COc1nc(-c2ccnc(NC(=O)C3CC3)c2)sc1C(N)=O` [GSK-3β inhibitor 2] (10 µM), the “kinase-Nluc reporter destabilization hit call” value with STK38, with SYK, in the test with TEC, with TYK2, in the test with ULK3 and with YES1 was inactive: 0 in each case. Further, the “kinase-Nluc reporter destabilization hit call” value with ZAK and with ZAP70 was inactive: 0 each time. For the same compound, the “number of time points” value with ABL1 and in the test with AKT1 was 0 in each case.
As to `O=c1nc(N2CCOCC2)oc2c(-c3cccc4c3sc3ccccc34)cccc12` (10 µM), the “kinase-Nluc reporter destabilization hit call” value with STK38, with SYK, with TEC, with TYK2, with ULK3 and with YES1 was inactive: 0 throughout. The “kinase-Nluc reporter destabilization hit call” value with ZAK and with ZAP70 was inactive: 0 throughout. The “number of time points” value with ABL1 and with AKT1 was 0 each time.
Take `CC(C)c1cc(/C=C(\C#N)C(N)=O)cc(C(C)C)c1O` (10 µM): the “kinase-Nluc reporter destabilization hit call” value with STK38, with SYK, with TEC, in the test with TYK2, with ULK3 and with YES1 was inactive: 0 each time. Besides, the “kinase-Nluc reporter destabilization hit call” value with ZAK and with ZAP70 was inactive: 0 in each case. In addition, the “number of time points” value with ABL1 and with AKT1 was 0 each time.
